# Source: PubChem BioAssay (EPA / NIEHS)
# Sequences of proteins named here, by UniProt entry; tags and fusion partners are left off. A change or cut given only in a name is not applied to a line headed by its entry.
# UniProt P19643, whole entry, looked up: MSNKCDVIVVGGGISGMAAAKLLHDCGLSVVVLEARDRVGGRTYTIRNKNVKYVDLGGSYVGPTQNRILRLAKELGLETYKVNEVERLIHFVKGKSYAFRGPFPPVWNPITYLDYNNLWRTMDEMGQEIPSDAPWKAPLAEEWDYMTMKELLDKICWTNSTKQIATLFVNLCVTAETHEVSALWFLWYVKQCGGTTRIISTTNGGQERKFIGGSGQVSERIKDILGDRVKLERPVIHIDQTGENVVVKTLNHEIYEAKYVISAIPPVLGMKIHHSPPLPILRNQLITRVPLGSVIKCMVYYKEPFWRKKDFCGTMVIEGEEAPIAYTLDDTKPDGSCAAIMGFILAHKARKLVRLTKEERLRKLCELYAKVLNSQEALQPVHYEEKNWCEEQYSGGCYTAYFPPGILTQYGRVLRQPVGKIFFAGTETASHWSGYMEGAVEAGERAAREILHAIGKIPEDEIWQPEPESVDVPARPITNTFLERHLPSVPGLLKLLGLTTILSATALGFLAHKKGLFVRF
# UniProt P08219: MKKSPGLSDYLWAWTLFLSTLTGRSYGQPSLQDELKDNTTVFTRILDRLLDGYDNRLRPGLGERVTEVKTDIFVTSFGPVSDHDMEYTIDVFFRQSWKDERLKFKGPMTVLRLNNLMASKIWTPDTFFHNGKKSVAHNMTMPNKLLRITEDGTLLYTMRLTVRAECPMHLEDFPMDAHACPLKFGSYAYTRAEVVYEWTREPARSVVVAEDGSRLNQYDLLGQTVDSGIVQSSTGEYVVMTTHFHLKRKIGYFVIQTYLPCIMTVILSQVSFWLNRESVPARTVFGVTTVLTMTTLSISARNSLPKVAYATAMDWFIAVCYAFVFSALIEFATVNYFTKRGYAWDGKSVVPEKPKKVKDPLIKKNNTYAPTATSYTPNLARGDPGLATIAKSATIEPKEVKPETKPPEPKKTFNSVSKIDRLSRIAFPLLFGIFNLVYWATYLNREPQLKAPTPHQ
# UniProt Q01827, whole entry, looked up: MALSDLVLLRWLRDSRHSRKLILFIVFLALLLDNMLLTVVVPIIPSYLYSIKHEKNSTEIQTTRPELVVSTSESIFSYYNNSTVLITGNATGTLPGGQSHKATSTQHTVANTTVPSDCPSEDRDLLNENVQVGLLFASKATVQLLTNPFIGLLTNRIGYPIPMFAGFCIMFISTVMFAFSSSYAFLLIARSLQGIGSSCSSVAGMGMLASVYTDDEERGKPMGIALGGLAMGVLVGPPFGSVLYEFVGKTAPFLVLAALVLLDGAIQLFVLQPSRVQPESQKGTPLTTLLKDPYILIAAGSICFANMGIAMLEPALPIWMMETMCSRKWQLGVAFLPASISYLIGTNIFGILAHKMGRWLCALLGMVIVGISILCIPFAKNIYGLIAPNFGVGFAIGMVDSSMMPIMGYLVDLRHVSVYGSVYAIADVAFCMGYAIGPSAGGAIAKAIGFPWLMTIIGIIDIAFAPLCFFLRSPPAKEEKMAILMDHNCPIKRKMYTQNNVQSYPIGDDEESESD
# Inconclusive means that the source gave no clear call. Such entries were picked first, then a sample of the others. Potencies of inconclusive entries are doubtful fits and often do not repeat. Calls of active or inactive are those of the source. Rule for the calls: active = hit-call score of the fitted dose curve at least 0.9, where 1 is the maximum; inconclusive = response in the unintended direction; inactive = score below 0.9.
# Molecular target: rat Monoamine Oxidase, MAO-B, Peripheral (MAOBP), Maob (gene 25750) (UniProt P19643)
# Assay: NVS_ENZ_rMAOBP: NovaScreen (NVS) Enzymatic Assay for rat Monoamine Oxidase, MAO-B, Peripheral (MAOBP) (AID 2283242)
SMILES,AC50,outcome
Cn1cnc2c1c(=O)[nH]c(=O)n2C,inconclusive: 2.08 µM,
Fc1ccccc1[C@@H](F)COC1CCC(Nc2ncnc3[nH]ncc23)CC1 (some centres not stated),active: 7.67 µM,
CCOC(=O)O[C@H](C)OC(=O)c1ccc2c(c1)cc(C(=O)NC1CCN(C(C)C)CC1)n2Cc1cc(-c2ccc(Cl)s2)on1,inconclusive: 5.23 µM,
CO[C@@H]1COCC[C@@H]1N[C@@H]1CC[C@@](C(=O)N2CCc3ncc(C(F)(F)F)cc3C2)(C(C)C)C1,inconclusive: 25 µM,
COc1ccc(S(=O)(=O)N2C(=O)[C@@](c3ccccc3OC)(N3C[C@H](O)C[C@H]3C(=O)N(C)C)c3cc(Cl)ccc32)c(OC)c1,,inactive

# Molecular target: bovine Gamma-Aminobutyric Acid Type A Receptor BDZ, alpha 1 site (GABARa1), GABRA1 (gene 780973) (UniProt P08219)
# Assay: NVS_LGIC_bGABARa1: NovaScreen (NVS) Ligand-Gated Ion Channel Assay for bovine Gamma-Aminobutyric Acid Type A Receptor BDZ, alpha 1 site (GABARa1) (AID 2283321)
# Method in brief: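 Bovine cortex membrane preparation, benzodiazepine site on GABA-A alpha1; specific radioligand displacement read after 0.75 h by filtration and scintillation. Screen at 25 uM, then singleton titrations up to 50 uM; DMSO baseline.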
SMILES,outcome,AC50
COc1nc(C)nc(NC(=O)NS(=O)(=O)c2ccccc2OCCCl)n1,inactive,
CN(C[C@@H](CC[N+]12CCC(C3CCCCC3)(CC1)CC2)c1ccc(Cl)c(Cl)c1)C(=O)c1cc(C(F)(F)F)cc(C(F)(F)F)c1,inactive,
CCCCCCCC(=O)O,,inconclusive: 0.0728 µM

# Molecular target: Norway rat Vesicular Monoamine Transporter (VMAT2), neurotransmitter transporter, Slc18a2 (gene 25549) (UniProt Q01827)
# Assay: NVS_TR_rVMAT2: NovaScreen (NVS) Transporter Assay for Norway rat Vesicular Monoamine Transporter (VMAT2), neurotransmitter transporter (AID 2283376);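 note: actives lower the bound radioligand signal below the DMSO level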
# Method in brief: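 Filter-based scintillation counting of radioligand bound to rat forebrain-derived VMAT2 protein, cell-free, 1 h post-dose. Signal loss relative to DMSO control scored; single-concentration duplicate screen (25 uM) followed by concentration-response testing of actives.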
SMILES,outcome,AC50
Nc1ccc(Oc2cccc(Oc3ccc(N)cc3)c2)cc1,inactive,
CCCCCCCCN(C)C,,inconclusive: 25 µM
O=C1CCC(=O)N1,inactive,
CCCOc1sc(C(=O)N2CCC(c3cc(CN)ccc3F)CC2)c(C)c1Br,,active: 2.89 µM
